{"source": "the supplement of paper PMC6411743", "note": "± gives the standard deviation of the averaged measurements. The list shows a part of the results, in another mix than the full data. Most entries show no effect beyond the scatter of the controls."}
{"compound": "Nc1ncnc2c1ncn2[C@@H]1O[C@H](COP(=O)(O)OP(=O)(O)OP(=O)(O)O)[C@@H](O)[C@H]1O [adenosine triphosphate]", "assay": "NP40-soluble protein abundance relative to vehicle (solubility fold change) (ratio); higher = more soluble protein in presence of ATP", "settings": "concentration: 0.1mM", "outline": "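Eight concentrations, 0.1 to 10 mM, were tested on Jurkat crude lysate for 10 min at room temperature and then 3 min at 37 °C, in three independent experiments. The lysate was solubilised with 0.8% NP40 and benzonase, ultracentrifuged, and the supernatant TMT-labelled for LC-MS/MS. Each value is the fold change against the detergent-processed vehicle in its own replicate, from vsn-normalised intensities.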"}
{"target": "PRKAR2A (UniProt P13861)", "NP40-soluble protein abundance": "1.02 ± 0.027"}
{"target": "LGALS1 (UniProt P09382)", "NP40-soluble protein abundance": "1.01 ± 0.0094"}
{"target": "UniProt P06396-2", "NP40-soluble protein abundance": "0.976 ± 0.032"}
{"target": "UniProt P09564", "NP40-soluble protein abundance": "1 ± 0.06"}
{"target": "UniProt P09132 and related entries", "NP40-soluble protein abundance": "0.943 ± 0.023"}
{"target": "BPGM (UniProt P07738)", "NP40-soluble protein abundance": "1.02 ± 0.037"}
{"target": "UniProt P14151 and related entries", "NP40-soluble protein abundance": "0.948 ± 0.028"}
{"target": "HIST1H1B (UniProt P16401)", "NP40-soluble protein abundance": "0.979 ± 0.096"}
{"target": "O96007 and related entries (UniProt O96033+O96007)", "NP40-soluble protein abundance": "0.978 ± 0.034"}
{"target": "CYC1 (UniProt P08574)", "NP40-soluble protein abundance": "1.01 ± 0.031"}
{"target": "UniProt P14209 and related entries", "NP40-soluble protein abundance": "0.932 ± 0.11"}
{"target": "NUDT14 (UniProt O95848)", "NP40-soluble protein abundance": "1.15 ± 0.08"}
{"target": "UniProt P09543-2", "NP40-soluble protein abundance": "1.09 ± 0.036"}
{"target": "UniProt P08240", "NP40-soluble protein abundance": "1.05 ± 0.067"}
{"target": "UniProt P10398 and related entries", "NP40-soluble protein abundance": "1.1 ± 0.1"}
{"target": "FBXO45 (UniProt P0C2W1)", "NP40-soluble protein abundance": "0.972 ± 0.11"}
{"target": "UniProt P14324-2", "NP40-soluble protein abundance": "0.966 ± 0.044"}
{"target": "TSPAN13 (UniProt O95857)", "NP40-soluble protein abundance": "0.867 ± 0.068"}
{"target": "FTH1 (UniProt P02794)", "NP40-soluble protein abundance": "0.949 ± 0.14"}
{"target": "PLS3 (UniProt P13797)", "NP40-soluble protein abundance": "1.05 ± 0.021"}
{"target": "RAC2 (UniProt P15153)", "NP40-soluble protein abundance": "1 ± 0.047"}
{"target": "MGMT (UniProt P16455)", "NP40-soluble protein abundance": "0.941 ± 0.045"}
{"target": "OAT (UniProt P04181)", "NP40-soluble protein abundance": "1.02 ± 0.027"}
{"target": "DLD (UniProt P09622)", "NP40-soluble protein abundance": "1.02 ± 0.023"}
{"target": "COX6A1 (UniProt P12074)", "NP40-soluble protein abundance": "0.855 ± 0.15"}
{"target": "UniProt P06730 and related entries", "NP40-soluble protein abundance": "0.9997 ± 0.0059"}
{"target": "UniProt P05771-2|P05771", "NP40-soluble protein abundance": "1.03 ± 0.081"}
{"target": "ZBED1 (UniProt O96006)", "NP40-soluble protein abundance": "1 ± 0.018"}
{"target": "UniProt O95834-2|O95834-3|O95834", "NP40-soluble protein abundance": "1.05 ± 0.12"}
